Among the data in paper PMC4598761 are binding values, retold here.

Amino acid sequences for entries named in this document (tags omitted).
UniProt Q9Y3R4: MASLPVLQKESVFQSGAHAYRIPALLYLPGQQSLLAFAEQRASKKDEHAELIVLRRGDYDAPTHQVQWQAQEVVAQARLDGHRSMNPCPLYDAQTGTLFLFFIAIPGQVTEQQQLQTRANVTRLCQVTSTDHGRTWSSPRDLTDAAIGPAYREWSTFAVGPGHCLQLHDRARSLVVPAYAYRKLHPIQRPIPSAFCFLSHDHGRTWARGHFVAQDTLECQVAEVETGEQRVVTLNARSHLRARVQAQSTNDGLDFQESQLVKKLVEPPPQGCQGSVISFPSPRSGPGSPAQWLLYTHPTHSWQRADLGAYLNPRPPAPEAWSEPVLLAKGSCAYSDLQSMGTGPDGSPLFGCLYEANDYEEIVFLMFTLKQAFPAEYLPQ

Results are given in words; binding and its absence hold for the method and conditions named. Sequences can lack the tags named with a protein.

The test addresses T1, (His)6-tagged yeast PNGase (yeast) (UniProt Q02890).
T1 sequence: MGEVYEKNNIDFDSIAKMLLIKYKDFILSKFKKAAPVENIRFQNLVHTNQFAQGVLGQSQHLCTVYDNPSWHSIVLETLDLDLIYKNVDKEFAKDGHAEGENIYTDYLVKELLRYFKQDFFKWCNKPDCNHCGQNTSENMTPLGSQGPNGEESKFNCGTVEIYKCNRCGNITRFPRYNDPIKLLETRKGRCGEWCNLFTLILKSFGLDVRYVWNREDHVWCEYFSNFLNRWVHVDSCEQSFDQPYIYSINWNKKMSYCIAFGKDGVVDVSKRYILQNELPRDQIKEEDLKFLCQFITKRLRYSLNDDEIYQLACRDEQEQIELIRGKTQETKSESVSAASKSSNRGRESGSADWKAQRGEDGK
The experiment in a line: pull-down; purified recombinant proteins mixed overnight at 4 °C (1.5 mg/mL each), precipitated with 20 μL Ni-Sepharose 6 Fast Flow for 1 h at 4 °C (His-tagged protein held), washed three times with PBS, western blotting; both purified. A general note: Immunoblotting shows a protein as a band on a membrane.

As for “GST-NEU2 (recombinant cytosolic sialidase NEU2) (from UniProt Q9Y3R4 1-380) (enzyme)”, the binding result is “no binding”.
